# Values quoted from earlier work as cited in patent US10682409B2, “Therapeutic treatment” (priority 2012, dated 2020).
# At least one compound was matched to its structure with a doubt left.
# Test system: norepinephrine (NE), dopamine (DA) and serotonin (5-HT) reuptake
# Conditions: NE to DA to 5-HT, respectively; cited from earlier work
compound,measurement,value
c1ccc2cc([C@]34CNC[C@H]3C4)ccc2c1 [EB-1020],"modulates norepinephrine (NE), dopamine (DA) and serotonin (5-HT) in a ratio of",1 to 6 to 14
